From the Kinase Knowledgebase extract (Sharma et al. 2016)

Amino acid sequences for entries named in this document (tags omitted). A change or cut given only in a name is not applied to a line headed by its entry.
UniProt P42338: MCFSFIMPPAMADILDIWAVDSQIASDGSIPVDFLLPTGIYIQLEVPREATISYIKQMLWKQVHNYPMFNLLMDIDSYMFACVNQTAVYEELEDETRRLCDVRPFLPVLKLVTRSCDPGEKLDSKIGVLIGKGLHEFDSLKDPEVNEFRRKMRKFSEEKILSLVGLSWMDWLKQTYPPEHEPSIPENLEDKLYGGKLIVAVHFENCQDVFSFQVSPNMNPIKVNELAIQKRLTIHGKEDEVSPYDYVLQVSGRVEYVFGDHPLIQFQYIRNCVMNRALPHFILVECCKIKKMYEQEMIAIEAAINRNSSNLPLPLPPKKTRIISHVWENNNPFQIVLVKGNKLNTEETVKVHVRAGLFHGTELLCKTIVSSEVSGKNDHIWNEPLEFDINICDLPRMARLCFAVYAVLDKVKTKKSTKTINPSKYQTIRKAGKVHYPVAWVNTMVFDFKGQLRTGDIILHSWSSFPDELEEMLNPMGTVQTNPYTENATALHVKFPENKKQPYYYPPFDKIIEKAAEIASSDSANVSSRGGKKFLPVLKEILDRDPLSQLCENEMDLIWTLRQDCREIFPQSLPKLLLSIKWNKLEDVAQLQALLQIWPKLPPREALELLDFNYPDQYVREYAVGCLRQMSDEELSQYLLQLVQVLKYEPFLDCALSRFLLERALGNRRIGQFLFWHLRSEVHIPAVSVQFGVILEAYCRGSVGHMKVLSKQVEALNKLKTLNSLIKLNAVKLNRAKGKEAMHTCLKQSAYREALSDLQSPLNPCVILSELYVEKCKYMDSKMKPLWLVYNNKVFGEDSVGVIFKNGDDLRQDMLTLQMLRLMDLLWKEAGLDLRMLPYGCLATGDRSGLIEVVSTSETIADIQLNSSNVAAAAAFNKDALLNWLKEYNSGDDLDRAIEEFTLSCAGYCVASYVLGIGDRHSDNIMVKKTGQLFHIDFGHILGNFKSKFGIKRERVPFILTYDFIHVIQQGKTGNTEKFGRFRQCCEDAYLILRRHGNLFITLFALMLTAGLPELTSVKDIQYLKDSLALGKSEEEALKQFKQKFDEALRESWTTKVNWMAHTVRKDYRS
UniProt O00329: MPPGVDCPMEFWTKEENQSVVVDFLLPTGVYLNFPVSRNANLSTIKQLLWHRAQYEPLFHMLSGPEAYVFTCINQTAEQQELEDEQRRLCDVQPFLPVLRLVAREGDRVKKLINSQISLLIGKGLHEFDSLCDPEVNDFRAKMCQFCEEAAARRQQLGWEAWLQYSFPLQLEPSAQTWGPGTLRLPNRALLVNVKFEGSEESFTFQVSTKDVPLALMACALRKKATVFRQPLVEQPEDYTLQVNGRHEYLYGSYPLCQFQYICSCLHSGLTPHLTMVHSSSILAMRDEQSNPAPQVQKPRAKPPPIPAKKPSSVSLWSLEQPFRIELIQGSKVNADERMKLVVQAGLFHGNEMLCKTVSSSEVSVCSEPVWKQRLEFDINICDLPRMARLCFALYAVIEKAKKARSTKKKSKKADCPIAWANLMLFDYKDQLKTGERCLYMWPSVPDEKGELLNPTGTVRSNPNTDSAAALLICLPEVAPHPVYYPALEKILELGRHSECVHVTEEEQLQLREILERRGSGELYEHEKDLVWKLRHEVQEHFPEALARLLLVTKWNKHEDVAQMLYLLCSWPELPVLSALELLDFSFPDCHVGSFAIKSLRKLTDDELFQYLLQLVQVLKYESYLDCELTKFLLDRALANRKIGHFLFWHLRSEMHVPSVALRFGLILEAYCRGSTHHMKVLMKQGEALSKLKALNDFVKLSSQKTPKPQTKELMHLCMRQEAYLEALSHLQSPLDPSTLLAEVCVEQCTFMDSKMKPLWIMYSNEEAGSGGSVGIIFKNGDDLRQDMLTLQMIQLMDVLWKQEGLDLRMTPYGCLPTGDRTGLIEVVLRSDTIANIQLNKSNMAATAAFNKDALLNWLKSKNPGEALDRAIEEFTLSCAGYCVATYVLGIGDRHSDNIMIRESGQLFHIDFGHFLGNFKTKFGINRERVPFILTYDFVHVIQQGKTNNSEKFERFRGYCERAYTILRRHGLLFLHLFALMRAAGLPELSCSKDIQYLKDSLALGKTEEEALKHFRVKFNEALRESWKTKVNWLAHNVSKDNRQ

What was measured:
[1] = target: PIK3CB (Human) (UniProt P42338)
[2] = target: PIK3CD (Human) (UniProt O00329)

| IC50 [1] [nM] | IC50 [2] [nM] | SMILES |
| --- | --- | --- |
| 5000 | 1200 | Cc1cc(-c2cc(-c3cc(S(=O)(=O)N[C@H](CO)C(F)(F)F)ccc3C)cnc2N)on1 |
| > 10000 | 720 | Cc1cc(-c2cc(-c3cc(S(=O)(=O)N[C@@H](CO)C(F)(F)F)ccc3C)cnc2N)on1 |
